Laboratory results: PubChem BioAssay AID652272 (Drosophila RNAi Screening Center, 2013)
In all, the deposit lists about 21,000 reagents; shown is an unselected part of those that have a named target and a result. Over the whole deposit, 503 (2.4%) got an active call. 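Raw plate light values, not normalised; calls rest on replicate z-scores that were not deposited; hits include reporter decreases as well as increases.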 The numbers tell different reagents against one gene apart. The record does not give: the amount of reagent, the time to read-out.

Test: 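Finding fly genes that regulate Hedgehog signal transduction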 (primary screen)
Cells: Drosophila clone 8 (Cl8) cells
Reagents: long dsRNA against Drosophila genes
Read-out: 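Plate reader light from a firefly reporter under a ptc promoter fragment that responds to Hedgehog, with Renilla light as transfection reference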
Scale: firefly Hh reporter signal: higher = more ptc reporter light; Renilla reference signal: higher = more Renilla control light
Active means: 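Called a hit if the two-replicate mean z-score lies below -2 or above +3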
Calls: active = hit: reporter lowered or raised; inactive = not a hit

How did the screen score LpR2 #1?
firefly Hh reporter signal, replicate 1: 41767; firefly Hh reporter signal, replicate 2: 2.64e5; Renilla reference signal, replicate 1: 11808; Renilla reference signal, replicate 2: 6311; Call: inactive

Which result is listed for LpR2 #2?
firefly Hh reporter signal, replicate 1: 43116; firefly Hh reporter signal, replicate 2: 1.74e5; Renilla reference signal, replicate 1: 11216; Renilla reference signal, replicate 2: 3819; Call: inactive

For LpR2 #3, what was measured?
firefly Hh reporter signal, replicate 1: 70787; firefly Hh reporter signal, replicate 2: 69105; Renilla reference signal, replicate 1: 1810; Renilla reference signal, replicate 2: 2216; Call: inactive

With LpR2 #4, what does the deposit list?
firefly Hh reporter signal, replicate 1: 3.83e5; firefly Hh reporter signal, replicate 2: 1.14e5; Renilla reference signal, replicate 1: 18562; Renilla reference signal, replicate 2: 3179; Call: inactive

With CG3984, how do the results read?
firefly Hh reporter signal, replicate 1: 1.65e5; firefly Hh reporter signal, replicate 2: 1.55e5; Renilla reference signal, replicate 1: 6235; Renilla reference signal, replicate 2: 4459; Call: inactive

With lncRNA:CR9162, what does the deposit list?
firefly Hh reporter signal, replicate 1: 1.10e5; firefly Hh reporter signal, replicate 2: 1.11e5; Renilla reference signal, replicate 1: 5164; Renilla reference signal, replicate 2: 4557; Call: inactive

What did the screen give for dome?
firefly Hh reporter signal, replicate 1: 85517; firefly Hh reporter signal, replicate 2: 71938; Renilla reference signal, replicate 1: 1925; Renilla reference signal, replicate 2: 1440; Call: inactive

With CG5381, what was measured?
firefly Hh reporter signal, replicate 1: 1.12e5; firefly Hh reporter signal, replicate 2: 74908; Renilla reference signal, replicate 1: 2730; Renilla reference signal, replicate 2: 5996; Call: inactive

What did the screen give for CG14322?
firefly Hh reporter signal, replicate 1: 5.16e5; firefly Hh reporter signal, replicate 2: 1.18e5; Renilla reference signal, replicate 1: 25284; Renilla reference signal, replicate 2: 3225; Call: inactive

Which result is listed for CG31115?
firefly Hh reporter signal, replicate 1: 59696; firefly Hh reporter signal, replicate 2: 1.58e5; Renilla reference signal, replicate 1: 13904; Renilla reference signal, replicate 2: 3509; Call: inactive

How did the screen score al?
firefly Hh reporter signal, replicate 1: 1.71e5; firefly Hh reporter signal, replicate 2: 1.19e5; Renilla reference signal, replicate 1: 4017; Renilla reference signal, replicate 2: 2709; Call: inactive

With CAH3, what does the deposit list?
firefly Hh reporter signal, replicate 1: 85157; firefly Hh reporter signal, replicate 2: 2.36e5; Renilla reference signal, replicate 1: 2806; Renilla reference signal, replicate 2: 8624; Call: inactive

With gammaSnap2, what was measured?
firefly Hh reporter signal, replicate 1: 77659; firefly Hh reporter signal, replicate 2: 89601; Renilla reference signal, replicate 1: 2872; Renilla reference signal, replicate 2: 2409; Call: inactive

What did the screen give for simj?
firefly Hh reporter signal, replicate 1: 61690; firefly Hh reporter signal, replicate 2: 1.03e5; Renilla reference signal, replicate 1: 2897; Renilla reference signal, replicate 2: 3472; Call: inactive

With CG6125, what was measured?
firefly Hh reporter signal, replicate 1: 69740; firefly Hh reporter signal, replicate 2: 97405; Renilla reference signal, replicate 1: 2498; Renilla reference signal, replicate 2: 2770; Call: inactive

Which result is listed for CG16972?
firefly Hh reporter signal, replicate 1: 1.19e5; firefly Hh reporter signal, replicate 2: 87459; Renilla reference signal, replicate 1: 4109; Renilla reference signal, replicate 2: 2841; Call: inactive

What did the screen give for CG7423?
firefly Hh reporter signal, replicate 1: 71578; firefly Hh reporter signal, replicate 2: 1.84e5; Renilla reference signal, replicate 1: 1202; Renilla reference signal, replicate 2: 7651; Call: inactive

What did the screen give for Ugt35E1?
firefly Hh reporter signal, replicate 1: 1.09e5; firefly Hh reporter signal, replicate 2: 1.63e5; Renilla reference signal, replicate 1: 2812; Renilla reference signal, replicate 2: 4440; Call: inactive

What is on record for gfzf?
firefly Hh reporter signal, replicate 1: 1.22e5; firefly Hh reporter signal, replicate 2: 85235; Renilla reference signal, replicate 1: 4560; Renilla reference signal, replicate 2: 3040; Call: inactive

Which result is listed for CG14615?
firefly Hh reporter signal, replicate 1: 45175; firefly Hh reporter signal, replicate 2: 1.63e5; Renilla reference signal, replicate 1: 1296; Renilla reference signal, replicate 2: 7344; Call: inactive

For CG31551, how do the results read?
firefly Hh reporter signal, replicate 1: 2.13e5; firefly Hh reporter signal, replicate 2: 8.40e5; firefly Hh reporter signal, replicate 3: 1.43e5; Renilla reference signal, replicate 1: 7848; Renilla reference signal, replicate 2: 48371; Call: inactive

Ordered by “firefly Hh reporter signal, replicate 2” (highest first): some entries from above
CG3984 — firefly Hh reporter signal, replicate 1: 1.65e5; firefly Hh reporter signal, replicate 2: 1.55e5; Renilla reference signal, replicate 1: 6235; Renilla reference signal, replicate 2: 4459; Call: inactive
LpR2 #4 — firefly Hh reporter signal, replicate 1: 3.83e5; firefly Hh reporter signal, replicate 2: 1.14e5; Renilla reference signal, replicate 1: 18562; Renilla reference signal, replicate 2: 3179; Call: inactive
